Protein sequences, listed by entry. Tags and fused reporters are not part of them. Lines headed by an entry give the natural chain unless they say otherwise; changes in a name come on top.
UniProt Q86VB7: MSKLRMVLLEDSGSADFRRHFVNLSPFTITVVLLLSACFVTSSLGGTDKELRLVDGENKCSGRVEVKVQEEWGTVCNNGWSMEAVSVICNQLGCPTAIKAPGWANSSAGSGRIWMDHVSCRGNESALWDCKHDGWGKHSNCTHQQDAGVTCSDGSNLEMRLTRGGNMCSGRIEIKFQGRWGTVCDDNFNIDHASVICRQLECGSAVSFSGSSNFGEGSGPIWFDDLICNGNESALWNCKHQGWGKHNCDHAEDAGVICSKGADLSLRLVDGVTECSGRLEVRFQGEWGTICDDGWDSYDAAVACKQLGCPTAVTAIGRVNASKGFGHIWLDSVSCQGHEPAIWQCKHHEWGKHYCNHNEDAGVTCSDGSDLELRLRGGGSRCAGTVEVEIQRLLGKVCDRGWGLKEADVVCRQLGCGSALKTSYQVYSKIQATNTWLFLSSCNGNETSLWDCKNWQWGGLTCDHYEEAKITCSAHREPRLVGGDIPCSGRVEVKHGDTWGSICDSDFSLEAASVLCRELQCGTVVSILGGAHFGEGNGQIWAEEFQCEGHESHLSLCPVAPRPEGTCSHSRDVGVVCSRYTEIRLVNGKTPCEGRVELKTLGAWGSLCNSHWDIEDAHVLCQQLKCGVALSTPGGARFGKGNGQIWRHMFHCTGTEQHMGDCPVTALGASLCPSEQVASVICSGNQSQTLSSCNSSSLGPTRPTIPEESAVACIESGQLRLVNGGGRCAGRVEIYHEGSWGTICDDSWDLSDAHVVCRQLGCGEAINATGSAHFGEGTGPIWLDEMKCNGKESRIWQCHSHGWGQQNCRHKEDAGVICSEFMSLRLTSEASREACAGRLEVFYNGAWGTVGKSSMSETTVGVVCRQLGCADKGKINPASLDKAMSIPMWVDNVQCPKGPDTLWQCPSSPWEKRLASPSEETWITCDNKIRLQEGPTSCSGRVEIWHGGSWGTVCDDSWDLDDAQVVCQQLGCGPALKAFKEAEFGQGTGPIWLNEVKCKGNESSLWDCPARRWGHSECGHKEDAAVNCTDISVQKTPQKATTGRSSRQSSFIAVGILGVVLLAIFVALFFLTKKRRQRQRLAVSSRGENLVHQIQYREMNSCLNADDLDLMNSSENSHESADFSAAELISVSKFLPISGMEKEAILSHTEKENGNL

According to patent publication US20120258107A1:

Legend:
[1] = biological target: human CD163 (purified, coated on ELISA plate) (human) (UniProt Q86VB7); experiment: ELISA, CD163 coated plate, CHO-S supernatant
[2] = biological target: human CD163 (purified, coated on ELISA plate) (human) (UniProt Q86VB7); experiment: ELISA, CD163 coated plate; the sample held about twice as much antibody as cgamma(6)/NRY
[3] = biological target: human CD163 (purified, coated on ELISA plate) (human) (UniProt Q86VB7); experiment: ELISA on CD163 coated wells, supernatant of transfected cells in two fold dilutions, goat anti-human IgG (H&L) HRP; the right four bar groups are taken as the CD163 wells

Measured: binding

B1: cgamma(6)/K8 (antibody)
VH: DVQLQESGPGLVKPSQSLSLTCTVTGYSITSDYAWNWIRQFPGNKLEWMGYITYSGITNYNPSLKSQISITRDTSKNQFFLQLNSVTTEDTATYYCVSGTYYFDYWGQGTTLTVSS
light: DIVMTQSPSSLSASVGDRVTITCRASQSVSSDVAWFQQKPGKSPKPLIYYASSLQSGVPSRFSGSGSGTDFTLTISSLQAEDFAVYFCGQDYTSPRTFGGGTKLEIKRTVAAPSVFIFPPSDEQLKSGTASVVCLLNNFYPREAKVQWKVDNALQSGNSQESVTEQDSKDSTYSLSSTLTLSKADYEKHKVYACEVTHQGLSSPVTKSFNRGEC
binds: all assays above

These are yes or no findings as the source states them, for the method shown. Binding can be weak; no strength is given.
